Reference: PubChem BioAssay AID504444 (National Center for Advancing Translational Sciences (NCATS), 2011)
In all, about 360,000 compounds went through this assay and about 7,500 (2.1%) were called active. Inconclusive means that the source gave no clear call. Such entries were picked first, then a sample of the others. The call rests on the fitted dose curve; in most records, active means well fitted inhibition curve with a large enough effect; inconclusive means small, poorly fitted or top-dose-only effect, or effect the other way; inactive means flat fitted curve, though single readings scatter. Potencies of inconclusive entries are doubtful fits and often do not repeat.

experiment: Nrf2 qHTS screen for inhibitors; conditions: A549 ARE-Fluc reporter, luciferase luminescence, 18-24 h; activity change, negative = inhibition: at 46 µM (top of the series); further: nearly all actives have a fitted effect of over 60% in size
In short: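 A549 ARE_Fluc cells, 5000/well, 5% FBS OPTI-MEM; compounds in dose-response, 18-24 h at 37 °C/5% CO2; CellTiter-Fluor viability read (Ex 405/Em 525), then BugLite luciferase luminescence = Nrf2 activity.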
On the % scale 0 is the no-effect control and ±100 the full control effect; potency means the concentration at half of the fitted maximal effect.

Row | SMILES | Potency | activity change, negative = inhibition
1 | Cc1cc(C)cc(NC(=O)c2ncn(-c3ccccc3)n2)c1 | inconclusive: 0.651 µM [activator, full curve] | 
2 | COc1ccc(CCNC(=O)CCc2nc3ccccc3[nH]2)cc1OC | inconclusive: 25.9 µM [activator, single point] | 
3 | CCCCN(CC)CCCNC(=O)C1c2ccccc2C(=O)N(C)C1c1cn(C)c2ccccc12 (centres undefined) | inconclusive: 25.9 µM [activator, single point] | 
4 | CCc1ccc(NC(=O)N(Cc2cn(CC)c3ccccc23)C2CCCCC2)cc1 | inconclusive: 13 µM [activator, partial curve] | 
5 | CCCCc1nc2cc(C(=O)N3CCCC(OCCC)C3)ccc2o1 (centres undefined) | inconclusive: 29.1 µM [activator, single point] | 
6 | C=CC[C@@H](Cc1ccc(F)cc1)C(=O)OC[C@@H]1CCCN1C(=O)[C@@H](CC=C)CC(=O)N(CCO)Cc1ccccc1 | inconclusive: 18.4 µM [falling, partial curve, poor fit] | 
7 | O=S(=O)(c1ccccc1)c1nc(-c2ccccc2)oc1N1CCN(c2cccc(Cl)c2)CC1 |  | inactive: 21.5%
8 | Nc1c(-c2ccccc2)cnn1-c1cccc([N+](=O)[O-])c1 | inconclusive: 32.6 µM [falling, partial curve, poor fit] | 
9 | Cc1ccc(C(=O)N(c2ccccc2)C2CC(C)N(C(=O)c3ccco3)c3ccccc32)cc1 (centres undefined) | inconclusive: 25.9 µM [falling, single point] | 
10 | CN(C(=O)C1CCC(=O)N(CCCN2CCCC2=O)C1)C(C1CC1)C1CC1 (centres undefined) |  | inactive: 12.5%
11 | Nn1c(=O)c2ccccc2n2c(SCc3ccc(C(F)(F)F)cc3)nnc12 | inconclusive: 16.4 µM [falling, partial curve] | 
12 | O=C(CSCc1cnn(-c2ccccc2)c1-n1cccc1)NCc1ccccc1Br | inconclusive: 29.1 µM [activator, single point] | 
13 | Cc1c(C)n(-c2ccc(Cl)cc2)c2ncnc(N)c12 | inconclusive: 6.51 µM [activator, partial curve, poor fit] | 
14 | COc1nc(C)ccc1-c1noc(-c2cccs2)n1 | inconclusive: 4.11 µM [activator, partial curve] | 
15 | CCOC(=O)c1c(C)oc2c1c(C(c1ccccc1)N1CCOCC1)c(O)c1ccccc12 (centres undefined) | inconclusive: 5.8 µM [activator, full curve, poor fit] | 
16 | O=C1c2[nH]nc(-c3ccccc3O)c2C(c2ccc(Cl)cc2)N1CCc1ccccc1 (centres undefined) | inconclusive: 29.1 µM [falling, single point] | 
17 | CCn1c(=NC(=O)CN2C(=O)CCC2=O)sc2c(C)cc(C)cc21 | inconclusive: 13 µM [activator, single point] | 
18 | CCOC(=O)/C(C#N)=C1/C=C(C)NC(c2ccccc2O)=N1 | active: 13 µM | 
19 | COc1cc(OC)cc(-c2cc3nc(C)c(CCC(=O)Nc4ccc(F)c(Cl)c4)c(C)n3n2)c1 | active: 2.06 µM | 
20 | Cc1ccc(OCC(=O)NNC(=O)c2ccccc2OCc2c(C)noc2C)cc1 |  | inactive: 3.05%
21 | O=C(Nc1ccc(N2CCOCC2)cc1)c1c(F)cccc1Cl | inconclusive: 29.1 µM [activator, single point] | 
22 | CC(C)CCNC(=O)c1sc2ccc(S(=O)(=O)N3CCCCC3)cc2c1N | inconclusive: 23.1 µM [falling, single point] | 

Entries of single compounds from above.
COc1nc(C)ccc1-c1noc(-c2cccs2)n1 in the list: Potency: inconclusive: 4.11 µM [activator, partial curve]
CC(C)CCNC(=O)c1sc2ccc(S(=O)(=O)N3CCCCC3)cc2c1N in the list: Potency: inconclusive: 23.1 µM [falling, single point]

(listing goes on)

Row | SMILES | Potency | activity change, negative = inhibition
23 | CNC(=O)c1ccc(-c2ccc(OC)cc2)s1 | inconclusive: 7.31 µM [activator, partial curve] | 
24 | O=C(/C=C/c1ccc(Cl)c([N+](=O)[O-])c1)Nc1ccc(NC(=O)c2ccco2)cc1 | inconclusive: 10.3 µM [activator, partial curve, poor fit] | 
25 | COc1cc2nc(SCC(=O)Nc3cccc(C)c3)n3nc(CCn4c(C)nc5ccccc54)nc3c2cc1OC |  | inactive: -43%
26 | CN(C)/C=N/C(=S)Nc1ccc(Cl)cc1 | inconclusive: 4.11 µM [activator, full curve] | 
27 | Cc1ccc(NC(=O)CN(C)C(=O)CSc2ccc3c(c2)OCCO3)cc1 |  | inactive: 7.98%
28 | Cc1ccc(NC(=O)COC(=O)COc2ccc3ccc(=O)oc3c2)cc1[N+](=O)[O-] |  | inactive: 8.58%
29 | COc1ccc(NC(C)C(=O)N/N=C/c2ccc([N+](=O)[O-])s2)cc1 (centres undefined) | active: 20.6 µM | 
30 | CCCn1nc(NC(=O)COC)c2cc3cc(C)ccc3nc21 | inconclusive: 6.51 µM [activator, single point] | 
31 | CC(=O)c1ccc(NC(=O)N2CCCC(C(=O)c3ccc4c(c3)OCO4)C2)cc1 (centres undefined) | inconclusive: 29.1 µM [falling, single point] | 
32 | CCn1cc([N+](=O)[O-])c(C(=O)N2N=C(c3ccc4ccccc4c3)CC2c2cc(Br)ccc2O)n1 (centres undefined) | inconclusive: 16.4 µM [falling, single point] | 
33 | CSc1ccc(/C=N/N(C)S(=O)(=O)c2ccc(C)cc2)cc1 | inconclusive: 18.4 µM [falling, single point] | 
34 | CC1CC(C)(C)NC(=S)N1CCC(=O)Nc1ccc2c(c1)OCCO2 (centres undefined) | inconclusive: 29.1 µM [falling, single point] | 
35 | CCCCOC(=O)CNc1n[nH]c(=S)[nH]c1=O | inconclusive: 5.17 µM [falling, single point] | 
36 | CC(C)(C)c1ccc(-n2ncc3c2CCCC3NC(=O)CN2CCCCC2=O)cc1 (centres undefined) | inconclusive: 18.4 µM [falling, single point] | 
37 | Cc1ccccc1CS(=O)(=O)c1snnc1C | inconclusive: 0.731 µM [falling, partial curve, poor fit] | 
38 | COc1ccc(CNC(=O)c2ccc3c(c2)CCN3S(=O)(=O)c2ccc(Cl)cc2)cc1 | inconclusive: 9.2 µM [falling, partial curve] | 
39 | O=C(Nc1ccc(Br)cn1)C1CCN(S(=O)(=O)c2cccs2)CC1 | inconclusive: 3.26 µM [falling, full curve] | 
40 | CCCCNc1nc2c(c(=O)n(Cc3ccccc3)c(=O)n2C)n1C | inconclusive: 9.2 µM [falling, full curve, poor fit] | 
41 | Cc1ccc(Cl)cc1N1CCN(C(=O)C2CCCN(Cc3nc(-c4cccc(Cl)c4)oc3C)C2)CC1 (centres undefined) | inconclusive: 25.9 µM [falling, single point] | 
42 | Cc1ccc(NC(=O)C2CCCN(S(=O)(=O)c3ccc4c(c3)CCCC(=O)N4)C2)cc1Cl (centres undefined) | inconclusive: 25.9 µM [falling, single point] | 
43 | Cn1c2c(c3cnc4cc(Cl)ccc4c31)CN(Cc1ccc(Cl)cc1)CC2 |  | inactive: 0.839%
44 | COc1cccc(C(=O)Nc2nnc(-c3ccccc3)s2)c1 | inconclusive: 18.4 µM [activator, partial curve] | 

An excerpt from above in order of formula weight, falling:
Row | SMILES | Potency | activity change, negative = inhibition
42 | Cc1ccc(NC(=O)C2CCCN(S(=O)(=O)c3ccc4c(c3)CCCC(=O)N4)C2)cc1Cl (centres undefined) | inconclusive: 25.9 µM [falling, single point] | 
38 | COc1ccc(CNC(=O)c2ccc3c(c2)CCN3S(=O)(=O)c2ccc(Cl)cc2)cc1 | inconclusive: 9.2 µM [falling, partial curve] | 
35 | CCCCOC(=O)CNc1n[nH]c(=S)[nH]c1=O | inconclusive: 5.17 µM [falling, single point] | 

Next part.

Row | SMILES | Potency | activity change, negative = inhibition
45 | Cc1cc(C(=O)Nc2cccc(C)c2C)c2c(C)nn(-c3cccc(F)c3)c2n1 | inconclusive: 9.2 µM [activator, partial curve, poor fit] | 
46 | C[C@H](NC(=O)c1ccc(C(C)(C)C)cc1)C(=O)N1CCC2(CC1)NCCc1[nH]cnc12 | inconclusive: 16.4 µM [falling, partial curve, poor fit] | 
47 | O=C(NCc1ccc(Cl)cc1)c1ccc2c(c1)N(Cc1ccccc1F)C(=O)c1ccccc1S2=O (centres undefined) |  | inactive: -21.7%
48 | COC(=O)[C@@H]1CCCN1C(=O)CCc1nnc(CCc2c[nH]c3ccccc23)o1 | inconclusive: 2.31 µM [activator, full curve] | 
49 | O=C(COC(=O)c1c2c(nc3ccccc13)CCCCC2)NCc1ccc2c(c1)OCO2 | inconclusive: 32.6 µM [falling, single point] | 
50 | CCC(C(=O)NCCc1ccc(Cl)cc1)n1ccc2cc(S(=O)(=O)N3CCCCC3)ccc21 (centres undefined) | inconclusive: 32.6 µM [falling, single point] | 
51 | O=C(O)C(Cc1ccccc1)N1C(=O)/C(=C/c2cccs2)SC1=S (centres undefined) |  | inactive: -2.13%
52 | COc1cc(NC(=S)NCCC(c2ccccc2)c2ccccc2)cc(OC)c1 | active: 23.1 µM | 
53 | CC(CCc1ccccc1)NC(=O)c1ccc(NC(=O)c2ccc(Cl)cc2Cl)cc1 (centres undefined) | inconclusive: 10.3 µM [falling, partial curve] | 
54 | Cc1ccc(C)c(OCc2cc(C(=O)N3CC[C@H](O)C3)no2)c1 | inconclusive: 18.4 µM [activator, partial curve] | 
55 | CC12CN3CC(C)(CN(C1)C3c1ccc([N+](=O)[O-])o1)C2=O (centres undefined) |  | inactive: -4.74%
56 | CCOc1ccc(NC(=O)CN(C)S(=O)(=O)c2ccc3[nH]c4c(c3c2)CCCC4)cc1 | inconclusive: 29.1 µM [falling, single point] | 
57 | Cc1cccc(C2c3[nH]c4ccccc4c3CCN2C(=O)c2cc(-c3cccn3C)n[nH]2)n1 (centres undefined) | inconclusive: 29.1 µM [falling, single point] | 
58 | Cc1ccnc(N=O)c1 | inconclusive: 16.4 µM [activator, partial curve] | 
59 | Oc1c(C(Nc2ccccn2)c2cccnc2)cc(Cl)c2cccnc12 (centres undefined) | inconclusive: 29.1 µM [falling, single point] | 
60 | COc1ccccc1-c1nnc(-c2ccc(C)cc2)o1 | inconclusive: 1.64 µM [activator, full curve] | 
61 | Cc1c(Cl)cccc1NC(=O)c1cc(-c2ccco2)on1 | inconclusive: 20.6 µM [activator, single point] | 
62 | O=c1[nH]c2cc3c(cc2cc1CN(CCCO)C(=S)NCc1ccco1)OCO3 |  | inactive: 14.2%
63 | COc1ccc2nc(NC(=O)c3cccnc3SC)sc2c1 | inconclusive: 13 µM [activator, partial curve] | 
64 | Cc1cc(NC(=O)COc2ccc([N+](=O)[O-])cc2)no1 | inconclusive: 32.6 µM [activator, partial curve, poor fit] | 
